# Laboratory results: PubChem BioAssay AID1259405 (NCATS, 2018)
# Test: 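Silenced genes that increase secreted GFP made by CHO cells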 (primary screen)
# System: Chinese hamster CHO-K1 ovary cells with stable secreted eGFP expression
# Reagents: single siRNA against mouse genes, 0.8 pmol siRNA per well (2 µl of 400 nM stock)
# Time to read-out: 3 days
# Measured: 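Percent of the per-plate non-targeting control median for intracellular GFP per well by laser scanning cytometry and for cell viability by ATP luminescence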
# Scale: GFP, % of control: higher = more GFP per well, higher productivity; viability (ATP), % of control: higher = more viable cells (more ATP)
# Call rule: 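a knock-down is called active if GFP reaches 120% or more of non-targeting control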
# The deposit covers about 50,000 reagents; this is a random part of them. About 4,000 of them (8%) were called active. 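Mouse siRNA library applied to hamster cells; one well for each siRNA.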 The numbers tell different reagents against one gene apart. Reagent sequences are not shown.
Target gene,reagent no.,"GFP, % of control","viability (ATP), % of control",call
Gpr137 (G protein-coupled receptor 137),1,123,78.6,active
Gpr137 (G protein-coupled receptor 137),2,82.5,89.9,inactive
"Pfkfb4 (6-phosphofructo-2-kinase/fructose-2,6-biphosphatase 4)",1,71.4,66.2,inactive
"Pfkfb4 (6-phosphofructo-2-kinase/fructose-2,6-biphosphatase 4)",2,86.7,81.7,inactive
"Pfkfb4 (6-phosphofructo-2-kinase/fructose-2,6-biphosphatase 4)",3,76.3,59.6,inactive
Or8b47 (olfactory receptor family 8 subfamily B member 47),1,90.1,61.3,inactive
Or8b47 (olfactory receptor family 8 subfamily B member 47),2,49.7,79.1,inactive
Or8b47 (olfactory receptor family 8 subfamily B member 47),3,88.9,90,inactive
Sox6 (SRY (sex determining region Y)-box 6),1,42.5,89.1,inactive
Sox6 (SRY (sex determining region Y)-box 6),2,62.5,77.7,inactive
Sox6 (SRY (sex determining region Y)-box 6),3,63.3,74.8,inactive
"Gng13 (guanine nucleotide binding protein (G protein), gamma 13)",1,75.9,70.7,inactive
"Gng13 (guanine nucleotide binding protein (G protein), gamma 13)",2,79.3,91.5,inactive
"Gng13 (guanine nucleotide binding protein (G protein), gamma 13)",3,32.2,30.6,inactive
Sorcs2 (sortilin-related VPS10 domain containing receptor 2),1,85.6,116,inactive
Sorcs2 (sortilin-related VPS10 domain containing receptor 2),2,81.1,73.9,inactive
Sorcs2 (sortilin-related VPS10 domain containing receptor 2),3,49.4,69.2,inactive
Ptges3 (prostaglandin E synthase 3),1,70,79.8,inactive
Ptges3 (prostaglandin E synthase 3),2,80.3,127,inactive
Ptges3 (prostaglandin E synthase 3),3,108,128,inactive
Snrpe (small nuclear ribonucleoprotein E),1,226,70.8,active
Snrpe (small nuclear ribonucleoprotein E),2,110,74.9,inactive
Txndc5 (thioredoxin domain containing 5),1,32.2,42.9,inactive
Txndc5 (thioredoxin domain containing 5),2,92.7,94.4,inactive
Txndc5 (thioredoxin domain containing 5),3,69.2,66,inactive
"Cyp2c40 (cytochrome P450, family 2, subfamily c, polypeptide 40)",1,60.5,53.5,inactive
"Cyp2c40 (cytochrome P450, family 2, subfamily c, polypeptide 40)",2,57,43.6,inactive
"Cyp2c40 (cytochrome P450, family 2, subfamily c, polypeptide 40)",3,67.3,59.7,inactive
Btla (B and T lymphocyte associated),1,52.9,33.4,inactive
Btla (B and T lymphocyte associated),2,89.9,107,inactive
Btla (B and T lymphocyte associated),3,107,111,inactive
Or5t9 (olfactory receptor family 5 subfamily T member 9),1,91,82.3,inactive
Or5t9 (olfactory receptor family 5 subfamily T member 9),2,76.2,65.1,inactive
Or5t9 (olfactory receptor family 5 subfamily T member 9),3,78.8,50.6,inactive
Hoxc10 (homeobox C10),1,124,113,active
Hoxc10 (homeobox C10),2,107,102,inactive
Hoxc10 (homeobox C10),3,54.7,83.1,inactive
Vamp2 (vesicle-associated membrane protein 2),1,91.8,84.9,inactive
Vamp2 (vesicle-associated membrane protein 2),2,111,123,inactive
Vamp2 (vesicle-associated membrane protein 2),3,87.9,73.3,inactive
Zbtb14 (zinc finger and BTB domain containing 14),1,129,132,active
Zbtb14 (zinc finger and BTB domain containing 14),2,52.6,74.2,inactive
Zbtb14 (zinc finger and BTB domain containing 14),3,66.7,89.7,inactive
Ercc6l2,1,74,66,inactive
Ercc6l2,2,105,94.1,inactive
Ercc6l2,3,137,164,active
Lgmn (legumain),1,71,88,inactive
Lgmn (legumain),2,54.6,53.4,inactive
Lgmn (legumain),3,81.6,86.5,inactive
Sval3 (seminal vesicle antigen-like 3),1,87.7,63.7,inactive
Sval3 (seminal vesicle antigen-like 3),2,102,121,inactive
Sval3 (seminal vesicle antigen-like 3),3,149,135,active
"Cdh7 (cadherin 7, type 2)",1,92.6,96,inactive
"Cdh7 (cadherin 7, type 2)",2,85.9,48.2,inactive
"Cdh7 (cadherin 7, type 2)",3,80.6,74.8,inactive
Zscan20 (zinc finger and SCAN domains 20),1,79.8,107,inactive
Zscan20 (zinc finger and SCAN domains 20),2,57.7,76.3,inactive
Zscan20 (zinc finger and SCAN domains 20),3,57.8,70,inactive
Igf2 (insulin-like growth factor 2),1,44.4,46.3,inactive
Igf2 (insulin-like growth factor 2),2,64.3,65.9,inactive
Igf2 (insulin-like growth factor 2),3,121,65.9,active
Zfp180 (zinc finger protein 180),1,55.7,78.2,inactive
Zfp180 (zinc finger protein 180),2,46.2,74.3,inactive
Zfp180 (zinc finger protein 180),3,67.5,105,inactive
Dcaf1 (DDB1 and CUL4 associated factor 1),1,32,37,inactive
Dcaf1 (DDB1 and CUL4 associated factor 1),2,46.8,64.1,inactive
Dcaf1 (DDB1 and CUL4 associated factor 1),3,48,44.6,inactive
Btk (Bruton agammaglobulinemia tyrosine kinase),1,38.1,54.6,inactive
Msl1 (male specific lethal 1),1,22.2,13.5,inactive
Msl1 (male specific lethal 1),2,123,49.8,active
Msl1 (male specific lethal 1),3,76.5,116,inactive
Disp1 (dispatched RND transporter family member 1),1,80,103,inactive
Disp1 (dispatched RND transporter family member 1),2,109,73.8,inactive
Disp1 (dispatched RND transporter family member 1),3,76.3,82.3,inactive
Or13a17 (olfactory receptor family 13 subfamily A member 17),1,86.9,80.5,inactive
Or13a17 (olfactory receptor family 13 subfamily A member 17),2,88.5,77.2,inactive
Or13a17 (olfactory receptor family 13 subfamily A member 17),3,106,101,inactive
Foxa3 (forkhead box A3),1,73.5,70,inactive
Foxa3 (forkhead box A3),2,87.9,86.6,inactive
Cdt1 (chromatin licensing and DNA replication factor 1),1,82.9,41.7,inactive
Cdt1 (chromatin licensing and DNA replication factor 1),2,42.3,53.3,inactive
Cdt1 (chromatin licensing and DNA replication factor 1),3,93.8,114,inactive
Tmem45a2 (transmembrane protein 45A2),1,56.8,71.2,inactive
Tmem45a2 (transmembrane protein 45A2),2,58.4,44.3,inactive
Tmem45a2 (transmembrane protein 45A2),3,64.8,71.5,inactive
Raly (hnRNP-associated with lethal yellow),1,105,78.3,inactive
Raly (hnRNP-associated with lethal yellow),2,88.7,82.1,inactive
Raly (hnRNP-associated with lethal yellow),3,57.2,66.6,inactive
Chchd3 (coiled-coil-helix-coiled-coil-helix domain containing 3),1,69.9,79.7,inactive
Chchd3 (coiled-coil-helix-coiled-coil-helix domain containing 3),2,117,61.2,inactive
Chchd3 (coiled-coil-helix-coiled-coil-helix domain containing 3),3,106,114,inactive
"Clec2d (C-type lectin domain family 2, member d)",1,15,23.2,inactive
"Clec2d (C-type lectin domain family 2, member d)",2,60.9,45.4,inactive
"Clec2d (C-type lectin domain family 2, member d)",3,117,104,inactive
"Sptssa (serine palmitoyltransferase, small subunit A)",1,101,97.3,inactive
"Sptssa (serine palmitoyltransferase, small subunit A)",2,67.8,51.8,inactive
"Sptssa (serine palmitoyltransferase, small subunit A)",3,74.2,73.9,inactive
Drc4 (dynein regulatory complex subunit 4),1,50.4,85,inactive
Drc4 (dynein regulatory complex subunit 4),2,56,75.5,inactive
Drc4 (dynein regulatory complex subunit 4),3,56.6,29.3,inactive
Slc41a2,1,72.7,86.4,inactive
Slc41a2,2,51,60.8,inactive
Slc41a2,3,72.4,93.2,inactive
Btbd1 (BTB domain containing 1),1,60,75.1,inactive
Btbd1 (BTB domain containing 1),2,61.6,82.3,inactive
Btbd1 (BTB domain containing 1),3,40.5,49.9,inactive
Ift43 (intraflagellar transport 43),1,117,80.8,inactive
Ift43 (intraflagellar transport 43),2,102,71.5,inactive
Ift43 (intraflagellar transport 43),3,109,54.8,inactive

Hits, among the entries above:
Target gene,reagent no.,"GFP, % of control","viability (ATP), % of control",call
Gpr137 (G protein-coupled receptor 137),1,123,78.6,active
Snrpe (small nuclear ribonucleoprotein E),1,226,70.8,active
Hoxc10 (homeobox C10),1,124,113,active
Zbtb14 (zinc finger and BTB domain containing 14),1,129,132,active
Ercc6l2,3,137,164,active
Sval3 (seminal vesicle antigen-like 3),3,149,135,active
Igf2 (insulin-like growth factor 2),3,121,65.9,active
Msl1 (male specific lethal 1),2,123,49.8,active
